Experimental data taken from article PMC9283393.
No constants are given. Whether binding was seen depends on the method and setting. In cells and extracts the contact can be indirect.

The chains behind the UniProt entries cited, without tags or fusion partners. Where a name states a change or a piece, a line headed by the entry shows the natural chain unless it says otherwise. Residues count along the entry.
UniProt O14964: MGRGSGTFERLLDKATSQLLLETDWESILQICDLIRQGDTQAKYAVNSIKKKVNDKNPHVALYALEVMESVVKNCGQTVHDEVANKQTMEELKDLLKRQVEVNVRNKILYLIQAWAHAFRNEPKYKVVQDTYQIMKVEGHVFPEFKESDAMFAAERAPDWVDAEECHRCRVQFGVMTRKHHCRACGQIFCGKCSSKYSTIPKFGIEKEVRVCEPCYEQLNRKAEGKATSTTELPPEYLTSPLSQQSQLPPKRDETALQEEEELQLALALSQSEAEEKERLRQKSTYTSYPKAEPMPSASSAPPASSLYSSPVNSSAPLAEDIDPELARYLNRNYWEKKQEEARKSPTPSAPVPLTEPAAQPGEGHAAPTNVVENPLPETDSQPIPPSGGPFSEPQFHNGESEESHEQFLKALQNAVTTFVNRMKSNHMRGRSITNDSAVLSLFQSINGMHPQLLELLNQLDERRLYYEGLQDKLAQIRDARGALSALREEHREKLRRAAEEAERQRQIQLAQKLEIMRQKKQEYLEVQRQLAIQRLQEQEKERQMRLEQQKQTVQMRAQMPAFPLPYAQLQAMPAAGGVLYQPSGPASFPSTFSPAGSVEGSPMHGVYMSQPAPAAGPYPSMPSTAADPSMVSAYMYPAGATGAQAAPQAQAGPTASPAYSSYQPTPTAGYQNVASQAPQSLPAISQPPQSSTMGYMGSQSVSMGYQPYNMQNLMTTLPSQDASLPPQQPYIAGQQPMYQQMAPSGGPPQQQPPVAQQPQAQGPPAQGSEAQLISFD
UniProt Q9NZQ7, residues 19-290: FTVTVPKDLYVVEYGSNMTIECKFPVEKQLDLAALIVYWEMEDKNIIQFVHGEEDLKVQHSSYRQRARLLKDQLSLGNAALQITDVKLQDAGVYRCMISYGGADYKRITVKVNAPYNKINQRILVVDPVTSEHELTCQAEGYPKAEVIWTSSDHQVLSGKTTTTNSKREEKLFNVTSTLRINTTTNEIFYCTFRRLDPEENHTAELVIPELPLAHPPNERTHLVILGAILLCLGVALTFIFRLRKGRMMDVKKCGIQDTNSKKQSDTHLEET

Target: Flag-tagged HRS fragment with further deletion of a.a. 276–478 (UniProt O14964)
Test: co-IP; cells expressing PD-L1 and Flag-tagged full-length HRS or fragments; anti-Flag immunoprecipitation; western blot of bound PD-L1

binding: no binding
Substance: PD-L1 (expressed together with Flag-HRS constructs, Fig. 3j) (from UniProt Q9NZQ7 19-290)
